This data set concerns the target PSMA (prostate-specific membrane antigen) on LNCaP cells (UniProt Q04609). As to the kind of experiment: two-photon scattering ruler on whole cells (nanoparticle dimer dissociation) and TEM. The following applies: TPS falls about 9% at 5 cells per mL, no change with PSMA(-) HaCaT cells, 3'-(CH2)6-SH, 2'-modifications not stated, ruler hybridized in 10 mM PBS with 0.3 M NaCl, pH and temperature of cell binding not given, protein on the cell surface, label: gold nanoparticle via 3' thiol.

The chains behind the UniProt entries cited, without tags or fusion partners. Where a name states a change or a piece, a line headed by the entry shows the natural chain unless it says otherwise.
UniProt Q04609: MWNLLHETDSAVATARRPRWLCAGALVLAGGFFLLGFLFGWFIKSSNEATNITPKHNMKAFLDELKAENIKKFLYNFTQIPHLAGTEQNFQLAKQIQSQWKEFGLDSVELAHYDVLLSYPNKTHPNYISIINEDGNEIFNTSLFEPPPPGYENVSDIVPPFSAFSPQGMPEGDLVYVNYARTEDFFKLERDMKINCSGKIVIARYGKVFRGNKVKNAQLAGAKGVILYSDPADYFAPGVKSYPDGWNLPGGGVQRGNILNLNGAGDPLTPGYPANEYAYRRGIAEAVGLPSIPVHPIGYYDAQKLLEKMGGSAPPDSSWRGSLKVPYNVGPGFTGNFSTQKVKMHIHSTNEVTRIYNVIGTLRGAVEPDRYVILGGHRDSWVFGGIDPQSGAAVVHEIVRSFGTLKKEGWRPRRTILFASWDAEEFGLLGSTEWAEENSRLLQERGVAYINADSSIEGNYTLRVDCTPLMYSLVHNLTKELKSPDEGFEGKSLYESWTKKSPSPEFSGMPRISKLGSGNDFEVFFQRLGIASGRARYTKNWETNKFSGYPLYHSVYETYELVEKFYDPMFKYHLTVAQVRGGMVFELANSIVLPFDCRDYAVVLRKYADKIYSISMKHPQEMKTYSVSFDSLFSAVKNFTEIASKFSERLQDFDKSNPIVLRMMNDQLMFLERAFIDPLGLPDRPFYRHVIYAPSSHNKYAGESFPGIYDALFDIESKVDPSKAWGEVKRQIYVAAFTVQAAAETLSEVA

Construct, isoform or probe ends are uncertain for at least one entry. At least one result comes from cells or an extract, where the contact may be indirect.

The text below walks through data of publication PMC5646206.

Regarding “GGGAGGACGAUGCGGACCGAAAAAGACCUGACUUCUAUACUAAGUCUACGUUCCCAGACGACUCGCCCG [A9 aptamer (anti-PSMA) TPS ruler strand]”, the binding result is reported as “binds”.
